## Results of single-concentration screens

Protein sequences, listed by entry. Tags and fused reporters are not part of them. Residues count along the entry.
UniProt Q8IDJ8, 1-583: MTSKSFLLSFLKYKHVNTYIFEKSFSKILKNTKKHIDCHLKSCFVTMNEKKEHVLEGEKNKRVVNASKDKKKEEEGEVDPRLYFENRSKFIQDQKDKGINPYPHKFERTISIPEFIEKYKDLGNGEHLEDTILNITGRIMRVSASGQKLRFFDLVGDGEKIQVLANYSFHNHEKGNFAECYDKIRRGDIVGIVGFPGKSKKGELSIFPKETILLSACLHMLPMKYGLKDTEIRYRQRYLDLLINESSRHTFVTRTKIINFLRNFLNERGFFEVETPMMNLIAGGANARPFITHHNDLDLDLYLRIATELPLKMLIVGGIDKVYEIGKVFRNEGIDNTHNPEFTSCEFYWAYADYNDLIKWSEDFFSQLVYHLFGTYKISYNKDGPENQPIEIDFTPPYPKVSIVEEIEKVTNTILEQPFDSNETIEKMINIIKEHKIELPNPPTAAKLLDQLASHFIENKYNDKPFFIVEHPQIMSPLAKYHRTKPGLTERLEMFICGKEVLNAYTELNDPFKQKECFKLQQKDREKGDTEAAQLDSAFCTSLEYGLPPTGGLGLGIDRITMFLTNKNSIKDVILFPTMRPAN
UniProt I6X8D2, whole entry: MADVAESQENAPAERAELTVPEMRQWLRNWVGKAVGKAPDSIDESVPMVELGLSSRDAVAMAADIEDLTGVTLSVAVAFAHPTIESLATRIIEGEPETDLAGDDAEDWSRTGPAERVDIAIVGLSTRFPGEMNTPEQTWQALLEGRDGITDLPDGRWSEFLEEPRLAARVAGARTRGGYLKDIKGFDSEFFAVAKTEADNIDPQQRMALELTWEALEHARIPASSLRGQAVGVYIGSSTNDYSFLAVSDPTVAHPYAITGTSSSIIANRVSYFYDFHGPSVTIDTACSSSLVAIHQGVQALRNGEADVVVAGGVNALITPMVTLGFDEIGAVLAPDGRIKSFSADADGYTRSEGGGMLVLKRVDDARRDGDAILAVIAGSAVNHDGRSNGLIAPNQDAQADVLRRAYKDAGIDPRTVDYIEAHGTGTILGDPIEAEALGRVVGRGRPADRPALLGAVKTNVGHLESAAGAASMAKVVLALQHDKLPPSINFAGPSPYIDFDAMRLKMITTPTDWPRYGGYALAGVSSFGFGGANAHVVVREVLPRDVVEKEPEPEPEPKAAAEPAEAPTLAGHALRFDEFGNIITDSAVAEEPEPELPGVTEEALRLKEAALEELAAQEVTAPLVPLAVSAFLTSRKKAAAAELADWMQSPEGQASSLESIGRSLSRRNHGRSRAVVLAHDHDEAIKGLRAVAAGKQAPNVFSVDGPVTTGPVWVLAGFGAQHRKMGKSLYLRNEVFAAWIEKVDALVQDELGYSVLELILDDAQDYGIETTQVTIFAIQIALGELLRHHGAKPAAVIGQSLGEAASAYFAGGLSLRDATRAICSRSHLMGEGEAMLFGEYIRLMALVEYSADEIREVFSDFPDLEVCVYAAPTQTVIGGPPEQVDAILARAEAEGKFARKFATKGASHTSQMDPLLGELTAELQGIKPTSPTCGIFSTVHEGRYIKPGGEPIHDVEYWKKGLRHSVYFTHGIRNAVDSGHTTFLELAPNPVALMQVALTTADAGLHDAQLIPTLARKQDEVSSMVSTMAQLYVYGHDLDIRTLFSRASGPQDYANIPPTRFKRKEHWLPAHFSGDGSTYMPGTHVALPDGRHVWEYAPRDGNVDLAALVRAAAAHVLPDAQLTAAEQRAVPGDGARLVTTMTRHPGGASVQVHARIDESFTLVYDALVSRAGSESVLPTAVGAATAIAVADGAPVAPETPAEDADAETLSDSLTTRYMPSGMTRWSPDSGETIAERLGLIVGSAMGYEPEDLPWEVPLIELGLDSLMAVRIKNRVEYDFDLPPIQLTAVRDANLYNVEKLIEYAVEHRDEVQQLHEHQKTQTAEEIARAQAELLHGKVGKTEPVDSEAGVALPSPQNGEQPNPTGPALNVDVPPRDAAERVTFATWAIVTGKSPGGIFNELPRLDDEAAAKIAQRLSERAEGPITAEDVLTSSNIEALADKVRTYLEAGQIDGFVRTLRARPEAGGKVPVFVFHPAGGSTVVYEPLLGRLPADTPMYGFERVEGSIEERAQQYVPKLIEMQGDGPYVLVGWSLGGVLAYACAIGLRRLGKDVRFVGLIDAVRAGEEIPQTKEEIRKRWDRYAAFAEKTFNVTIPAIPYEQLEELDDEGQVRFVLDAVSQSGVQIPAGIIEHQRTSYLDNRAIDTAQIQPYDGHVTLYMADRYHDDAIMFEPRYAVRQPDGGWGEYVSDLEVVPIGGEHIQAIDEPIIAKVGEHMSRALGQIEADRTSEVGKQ
UniProt P9WNZ1, whole entry: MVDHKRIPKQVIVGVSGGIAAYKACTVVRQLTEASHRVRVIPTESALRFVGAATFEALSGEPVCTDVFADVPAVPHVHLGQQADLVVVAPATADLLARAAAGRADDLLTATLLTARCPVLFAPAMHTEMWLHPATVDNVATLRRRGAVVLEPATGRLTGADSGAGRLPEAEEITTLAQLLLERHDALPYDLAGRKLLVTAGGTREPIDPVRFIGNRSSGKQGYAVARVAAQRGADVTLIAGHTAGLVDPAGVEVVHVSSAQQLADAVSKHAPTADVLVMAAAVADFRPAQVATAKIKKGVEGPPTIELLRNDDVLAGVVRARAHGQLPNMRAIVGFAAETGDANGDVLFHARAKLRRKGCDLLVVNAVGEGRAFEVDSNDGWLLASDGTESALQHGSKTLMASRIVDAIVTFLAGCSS
UniProt Q4DA54, 1-478: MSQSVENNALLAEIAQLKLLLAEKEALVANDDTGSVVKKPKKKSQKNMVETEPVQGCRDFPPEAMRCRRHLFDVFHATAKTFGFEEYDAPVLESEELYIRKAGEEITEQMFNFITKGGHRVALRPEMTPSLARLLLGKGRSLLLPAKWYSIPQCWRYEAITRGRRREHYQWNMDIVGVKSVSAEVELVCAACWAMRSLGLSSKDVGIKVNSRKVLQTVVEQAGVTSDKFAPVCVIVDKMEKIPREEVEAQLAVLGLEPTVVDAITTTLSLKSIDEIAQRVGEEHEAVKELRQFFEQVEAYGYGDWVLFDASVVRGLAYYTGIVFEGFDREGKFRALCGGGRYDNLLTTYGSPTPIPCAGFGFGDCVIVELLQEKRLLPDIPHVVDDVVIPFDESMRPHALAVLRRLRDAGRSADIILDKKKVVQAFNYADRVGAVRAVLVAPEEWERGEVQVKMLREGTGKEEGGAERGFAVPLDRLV
UniProt P9WFT3, whole entry: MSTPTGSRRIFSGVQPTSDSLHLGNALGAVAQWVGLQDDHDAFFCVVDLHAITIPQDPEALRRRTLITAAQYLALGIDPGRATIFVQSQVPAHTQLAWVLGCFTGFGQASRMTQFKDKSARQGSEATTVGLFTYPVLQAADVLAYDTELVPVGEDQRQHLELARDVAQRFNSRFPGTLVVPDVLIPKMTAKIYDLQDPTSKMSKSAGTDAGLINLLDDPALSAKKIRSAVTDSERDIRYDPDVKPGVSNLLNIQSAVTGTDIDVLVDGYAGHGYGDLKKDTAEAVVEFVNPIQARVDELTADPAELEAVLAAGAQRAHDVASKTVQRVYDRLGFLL
UniProt P9WPC5, whole entry: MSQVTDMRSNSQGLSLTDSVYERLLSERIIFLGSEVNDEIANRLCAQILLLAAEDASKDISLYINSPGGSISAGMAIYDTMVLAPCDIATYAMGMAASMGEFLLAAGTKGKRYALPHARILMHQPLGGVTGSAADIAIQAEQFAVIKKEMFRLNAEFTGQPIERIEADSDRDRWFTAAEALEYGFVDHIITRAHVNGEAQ
UniProt P9WPC3, whole entry partner: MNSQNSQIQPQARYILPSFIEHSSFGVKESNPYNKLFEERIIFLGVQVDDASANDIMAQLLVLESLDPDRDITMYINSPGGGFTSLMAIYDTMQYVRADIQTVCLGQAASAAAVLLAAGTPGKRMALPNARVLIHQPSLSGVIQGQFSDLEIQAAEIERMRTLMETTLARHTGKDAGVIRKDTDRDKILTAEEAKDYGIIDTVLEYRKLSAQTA

Measurements from “University of Dundee, Small-Polar-MMV Screening Library” (2021), ChEMBL document CHEMBL3988442.

PfKRS1: 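Enzyme assay of the cytosolic lysyl-tRNA synthetase in 384-well plates, read by luminescence. Target: Lysine-tRNA ligase, Plasmodium falciparum 3D7 (UniProt Q8IDJ8). Tested at 30 µM. Higher reads as stronger inhibition, judged from the few compounds that gave an IC50. Size under these conditions: about 69,000 compounds, about 49 of them at 50% or above in at least one test.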
Pks13 thioesterase: 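Polyketide synthase Pks13, Mycobacterium tuberculosis (UniProt I6X8D2). Enzyme assay of the thioesterase domain of polyketide synthase 13; the read-out is not stated. Concentration: 30 µM. The record gives no direction; the compounds picked for IC50 retests had high values, so higher reads as stronger inhibition. Size under these conditions: about 67,000 compounds, about 300 of them at 50% or above in at least one test.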
CoaBC: 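Enzyme assay of CoaBC with a phosphate dye (Biomol Green) read at 650 nm. Target: Coenzyme A biosynthesis protein CoaBC, Mycobacterium tuberculosis (UniProt P9WNZ1). Concentration: 30 µM. Higher reads as stronger inhibition, judged from the few compounds that gave an IC50. Most strong results did not repeat in a second test. Size under these conditions: about 67,000 compounds, about 40 of them at 50% or above in at least one test.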
TcHisRS: 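Histidine-tRNA ligase, Trypanosoma cruzi CL Brener (UniProt Q4DA54). Enzyme assay of histidyl-tRNA synthetase; the read-out is not stated. Tested at 30 µM. Higher reads as stronger inhibition (inferred: compounds with an IC50 in retests scored well above the rest). Of about 69,000 compounds tested this way, about 31 (0.045%) reached 50% or more in at least one test.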
MtTrpRS: 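Enzyme assay of tryptophanyl-tRNA synthetase; the read-out is not stated. Target: Tryptophan-tRNA ligase, Mycobacterium tuberculosis (UniProt P9WFT3). Concentration: 10 µM. Direction is not recorded; retested compounds ran higher, which suggests that high means inhibition. About 65,000 compounds were tested under these conditions; 0.098% (about 64) showed 50% or more at least once.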
ClpP1P2: 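Protease assay of ClpP1P2, read by the AMC dye that it sets free. Target: ClpP1P2, Mycobacterium tuberculosis (UniProt P9WPC5 and UniProt P9WPC3). Tested at 50 µM. Higher reads as stronger inhibition, judged from the few compounds that gave an IC50. Most other retested compounds had strongly negative values. About 69,000 compounds were tested under these conditions; 0.015% (about 10) showed 50% or more at least once.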

The filed quantity is “Percent Effect” (%). The record does not define 0% and 100%; most values in the screen are far below 50% and negative numbers occur (in some assays of this library far below -100). This is an unselected part of the compounds tested. A dash means the value is not listed here; it may have been measured.

Compound	PfKRS1	Pks13 thioesterase	CoaBC	TcHisRS	MtTrpRS	ClpP1P2
Cn1nc(Cn2cccc2)c2c1CN(Cc1ccsc1)C2	6.351	-15.12	2.415	20	-6.727	7.608
O=C1NCc2ccccc2CC12CCN(Cc1c(F)cccc1Cl)C2 (configuration not stated)	3.898	-21.35	6.579	5.325	-3.371	6.8
CCOc1ccc(NS(=O)(=O)c2cc(C)c(C(=O)O)s2)c(C)c1	2.08	-32.64	-6.867	-1.163	0.6156	2.64
CCOCCCC(=O)NCc1ccc(N2CCCCC2)cc1	0.2613	-35.48	5.529	5.063	0.2283	0.4273
CC(=O)N1CCC(Cc2cnc(-c3c(C)nn(C)c3C)cn2)C1 (configuration not stated)	-2.3	-29.55	-2.332	1.639	0.8811	4.026
Fc1ccc(OCCNCCn2cccn2)cc1	1.123	-23.74	0.6361	3.944	-2.173	17.17
Cc1noc(C(C)Nc2ccc3oc(C(C)C)nc3c2)n1 (configuration not stated)	24.19	-9.823	12.45	13.83	0.273	3.986
COCC(=O)N[C@@H]1CN(Cc2ccc3c(c2)OCCO3)C[C@H]1O	-1.094	-16.97	9.271	5.323	8.314	3.755
CCN1CCN(C(=O)c2cnc(Cc3c(Cl)cccc3Cl)nc2O)CC1	2.93	-25.04	-0.4132	7.065	1.257	-6.632
CNC(=O)c1cn[nH]c1C1(C)CCCN(Cc2nccn2C(C)C)C1 (configuration not stated)	0.2842	-69.05	-3.893	-15.67	-2.841	-0.6652
CN(C)S(=O)(=O)N1CCC(Oc2ccccn2)CC1	-0.1902	-15.16	-4.183	2.174	-0.9923	-19.21
c1cc(CN2C[C@@H]3OCCN(CCN4CCCC4)[C@@H]3C2)cs1	4.165	-27.47	-16.75	1.961	0.1833	-1.266
COc1cc(NC(=O)c2ccc(C)c(F)c2)c(C(=O)N(C)C)cc1OC	1.098	16.59	9.504	0	1.086	12.21
N#Cc1ccc(NCCC2CCN(CC(F)(F)F)CC2)nc1	2.639	-25.44	-2.764	4.902	4.216	-1.821
Cc1nnc(N2CC[C@H]3C[C@@H](C(=O)NC4CCCC4)O[C@H]3C2)s1	-7.51	-27.23	-1.028	4.972	-2.528	2.08
Cc1cnn(C2CN(CC(=O)NCC(C)C)C2)c1	1.733	1.291	-1.434	27.75	-2.887	-12.09
Cc1nc(C2CCCN2C(=O)Cc2ccc(F)cc2)ncc1C(N)=O (configuration not stated)	2.092	-1.626	1.611	3.745	-	-11.2
CN(C)CCN1C[C@@H]2CN(S(=O)(=O)c3cccs3)C[C@@H]2C1=O	3.442	-17.05	3.817	2.913	-5.74	-14.69
COc1ccc(CC2CN(C3CCSCC3)CCO2)cc1 (configuration not stated)	0.02393	2.497	2.538	8.52	-2.001	-24.11
O=C1CN(C(=O)CSC2CCCc3ccccc32)CCN1 (configuration not stated)	7.562	-24.24	0.6048	1.087	-1.211	-2.77
Cn1ccnc1CN1CCCN(C(=O)c2ccc3c(c2)COC3)CC1	-1.843	-3.554	0.5008	-6.818	-4.581	9.774
Cn1ncc2cnn(CC(O)COc3cccc4[nH]ccc34)c2c1=O (configuration not stated)	3.856	-16.51	0.5894	-6.897	19.19	8.525
Cc1cc(NC(=O)CN2CCCC(Cn3cncn3)C2)no1 (configuration not stated)	4.977	-42.87	-	12.99	1.342	-0.6014
Cc1nnc(CN(Cc2cccc(Br)c2)C2CC2)o1	2.713	-32.9	0.9724	7.071	1.5	0.4557
Cc1cc(C(=O)N(C)S(=O)(=O)C(C)C)ccc1F	3.625	-26.98	-5.645	5.028	-3.43	-5.905
COc1cccc(-c2n[nH]cc2-c2nc(CN3CCCC3)no2)c1	-1.003	-6.897	1.351	10.71	2.545	-2.633
COc1ccc(CN2CCCCCC2c2cccs2)c(OC)c1 (configuration not stated)	-8.92	10.64	7.341	6.533	1.761	-1.781
Cc1nn(C)cc1S(=O)(=O)NC1(CN2CCOCC2)CCCCC1	-0.4406	4.466	-4.326	5.323	-4.235	-4.338
O=C(CC1CC1)N1CCC2(COCc3cnc(N4CCOCC4)nc32)C1 (configuration not stated)	-1.769	-9.069	-0.75	2.941	-2.346	-1.007
CCc1cnc(N2CC[C@H]3[C@@H]2CCC(=O)N3c2cccnc2)nc1	5.487	-5.995	-0.495	5.525	-	-0.7597
c1cncc(OCc2nnn3c2CN(Cc2ccsc2)CCC3)c1	-1.566	-18.21	3.426	0.5405	2.833	-6.282
CC(=O)NCCC(=O)Nc1sccc1C(=O)C(C)(C)C	4.438	-6.843	12.27	-1.685	-8.473	9.378
Cc1cccc(CN2C[C@@H]3CN(C4CCOCC4)C[C@@H]3C2=O)c1	4.846	-23.82	-6.542	7.609	-3.653	-4.59
COc1ccc2c(c1)c(C(=O)Nc1n[nH]c(C(C)C)n1)cn2C(C)C	-2.274	-12.26	6.904	7.292	16.44	-0.009149
Cc1ncc2c(n1)CCCC2NC(=O)c1ccccc1Cn1cncn1 (configuration not stated)	-7.047	10.68	2.419	-0.5587	7.588	-9.533
Cc1cc(C)c(CNC(=O)NCC(O)c2ccccc2)c(=O)[nH]1 (configuration not stated)	-0.172	35.42	1.956	3.468	1.945	-16.48

Repeated from the top, 4 entries:

{"compound": "Cn1nc(Cn2cccc2)c2c1CN(Cc1ccsc1)C2", "PfKRS1": 6.351, "Pks13 thioesterase": -15.12, "CoaBC": 2.415, "TcHisRS": 20, "MtTrpRS": -6.727, "ClpP1P2": 7.608}
{"compound": "O=C1NCc2ccccc2CC12CCN(Cc1c(F)cccc1Cl)C2", "stereo": "configuration not stated", "PfKRS1": 3.898, "Pks13 thioesterase": -21.35, "CoaBC": 6.579, "TcHisRS": 5.325, "MtTrpRS": -3.371, "ClpP1P2": 6.8}
{"compound": "CCOc1ccc(NS(=O)(=O)c2cc(C)c(C(=O)O)s2)c(C)c1", "PfKRS1": 2.08, "Pks13 thioesterase": -32.64, "CoaBC": -6.867, "TcHisRS": -1.163, "MtTrpRS": 0.6156, "ClpP1P2": 2.64}
{"compound": "CCOCCCC(=O)NCc1ccc(N2CCCCC2)cc1", "PfKRS1": 0.2613, "Pks13 thioesterase": -35.48, "CoaBC": 5.529, "TcHisRS": 5.063, "MtTrpRS": 0.2283, "ClpP1P2": 0.4273}